For at least one entry, the source does not settle the construct or the ends of the probe.
System: GST-EbMYBP1 (Erigeron breviscapus)
Assay: EMSA
Conditions: EMSA with 5' 6-FAM probes and unlabeled competitors; pH and temperature not stated; recombinant protein; protein details: GST (pGEX-4T-1); label: FAM (5' 6-FAM/FITC)

CAGGGTTAAAGTTAGTTGTAAGGAGAGG (double strand) [pNtF3H probe]
binding result: binds

CCTCTCGCTCTACCTAACTACAAATTAT (double strand) [pNtCHI probe]
binding result: binds

GAAAAAGTGAAGTTTGGTAGGTAGTATTAATGAA (double strand) [pNtFLS2 probe]
binding result: binds

GATCTTGAGAAGTAGGTAGCTAGCTAATTATTG (double strand) [pNtCHS probe]
binding result: binds
